Experimental data: PubChem BioAssay AID652243 (Drosophila RNAi Screening Center, 2013)

- Assay: 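Fly regulators of androgen-dependent reporter output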 (primary screen)
- Cell system: Drosophila S2R+ cells
- Knock-down reagent: long dsRNA against Drosophila genes
- Duration: 72 h (48 h, then 24 h hormone)
- Treatment: synthetic androgen R1881 at 10 nM for 24 h
- Detection: 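Per-well raw luminescence of the androgen-driven firefly reporter and of the Renilla control, two replicates each, without normalisation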
- Scale: firefly reporter light: higher = more light from androgen-responsive reporter; Renilla control light: higher = more constitutive control signal (cell number, transfection)
- Rule for the call: 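Across duplicate plates, a knock-down whose log firefly/Renilla ratio shifted a set fold down or up from the GFP/LacZ control mean was a hit; the downward cut appears as both 1.5 and 3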
- Calls: active = hit: reporter lowered or raised; inactive = no hit
The deposit covers about 24,000 reagents; this is an unselected part of those that have a named target and a result. Of all reagents, 246 (1%) are marked active. 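Plates not normalised; calls are printed but the firefly/Renilla ratio behind them is not deposited; fold cut for lowering reported inconsistently.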 The raw values are shown without normalisation. Names joined by + are all predicted targets of the reagent. Not stated in the record: the amount of reagent.

| Gene | PubChem SID | firefly reporter light, replicate 1 | firefly reporter light, replicate 2 | Renilla control light, replicate 1 | Renilla control light, replicate 2 | activity call |
| --- | --- | --- | --- | --- | --- | --- |
| Tim17a1 | SID104193976 | 2.23e5 | 2.51e5 | 2.89e6 | 2.96e6 | inactive |
| Gprk2 | SID104196474 | 8856 | 3774 | 1.43e5 | 1.15e5 | active |
| Gprk2 | SID104202693 | 1.05e6 | 7.69e5 | 6.62e5 | 5.38e5 | active |
| Gprk2 | SID104214223 | – | – | – | – | inactive |
| Gprk2 | SID104214224 | – | – | – | – | inactive |
| RpL36A | SID104182847 | 2.18e5 | 2.05e5 | 1.16e6 | 1.19e6 | inactive |
| RpL36A | SID104205919 | 2.82e5 | 2.09e5 | 3.09e5 | 3.31e5 | inactive |
| Hap40 | SID104199877 | 76442 | 40102 | 5.36e5 | 5.66e5 | inactive |
| Hap40 | SID104204668 | 2.53e5 | 3.22e5 | 6.75e5 | 6.43e5 | inactive |
| Fbxo42 | SID104184321 | 1.77e6 | 4.47e5 | 2.38e6 | 1.03e6 | inactive |
| Fbxo42 | SID104208455 | 7.19e5 | 7.26e5 | 1.64e6 | 1.66e6 | inactive |
| Nup205 | SID104199224 | 87652 | 1.09e5 | 4.61e5 | 6.10e5 | inactive |
| CG12017 | SID104188017 | 1.27e5 | 1.11e5 | 1.58e6 | 1.64e6 | inactive |
| CG12017 | SID104207481 | 3.45e5 | 3.17e5 | 7.45e5 | 8.63e5 | inactive |
| COX4L | SID104184633 | 2.46e5 | 4.23e5 | 1.75e6 | 2.46e6 | inactive |
| PLCXD | SID104182219 | 4.59e5 | 5.78e5 | 2.21e6 | 2.56e6 | inactive |
| Myd88 | SID104186607 | 1.50e6 | 1.43e6 | 1.11e6 | 9.61e5 | inactive |
| Myd88 | SID104207374 | 6.75e5 | 1.04e6 | 6.13e5 | 6.16e5 | inactive |
| Myd88 | SID104216600 | 7.02e5 | 8.37e5 | 1.94e6 | 1.79e6 | inactive |
| CG14262 | SID104194549 | 1.76e5 | 1.62e5 | 2.72e6 | 2.85e6 | inactive |
| g | SID104200127 | 3.71e5 | 4.47e5 | 3.91e6 | 4.45e6 | inactive |
| g | SID104204662 | 4.45e5 | 3.56e5 | 8.00e5 | 6.88e5 | inactive |
| Vm26Ab | SID104183265 | 6.10e5 | 5.53e5 | 2.85e6 | 2.50e6 | inactive |
| Vm26Ab | SID104203769 | 6.20e5 | 4.04e5 | 1.87e6 | 9.09e5 | inactive |
| Bili + CR41504 | SID104216237 | 7.71e5 | 5.68e5 | 1.89e6 | 2.22e6 | inactive |
| CG14995 | SID104202348 | 1.14e6 | 1.27e6 | 1.58e6 | 2.01e6 | inactive |
| CG14500 | SID104186263 | 1.31e5 | 1.39e5 | 1.91e6 | 1.91e6 | inactive |
| faf | SID104196734 | 1.92e5 | 1.28e5 | 2.86e6 | 2.87e6 | inactive |
| CG5194 | SID104190284 | 7.65e5 | 5.18e5 | 1.17e6 | 1.00e6 | inactive |
| ltl | SID104189998 | 1.88e5 | 2.02e5 | 1.65e6 | 1.77e6 | inactive |
| ltl | SID104190662 | 1.11e5 | 1.33e5 | 1.45e6 | 1.37e6 | inactive |
| CG9981 | SID104200017 | 2.05e5 | 1.80e5 | 2.01e6 | 1.60e6 | inactive |
| CG31659 | SID104180552 | 1.05e5 | 1.15e5 | 8.75e5 | 1.04e6 | inactive |

Part of the list above in another layout:
Myd88 [SID104216600] — firefly reporter light, replicate 1 = 7.02e5; firefly reporter light, replicate 2 = 8.37e5; Renilla control light, replicate 1 = 1.94e6; Renilla control light, replicate 2 = 1.79e6; activity call = inactive
CG14262 [SID104194549] — firefly reporter light, replicate 1 = 1.76e5; firefly reporter light, replicate 2 = 1.62e5; Renilla control light, replicate 1 = 2.72e6; Renilla control light, replicate 2 = 2.85e6; activity call = inactive
g [SID104200127] — firefly reporter light, replicate 1 = 3.71e5; firefly reporter light, replicate 2 = 4.47e5; Renilla control light, replicate 1 = 3.91e6; Renilla control light, replicate 2 = 4.45e6; activity call = inactive

Next reagents follow.
| Gene | PubChem SID | firefly reporter light, replicate 1 | firefly reporter light, replicate 2 | Renilla control light, replicate 1 | Renilla control light, replicate 2 | activity call |
| --- | --- | --- | --- | --- | --- | --- |
| ND2 (retired record) | SID104201066 | 7.03e5 | 8.44e5 | 2.06e6 | 2.01e6 | inactive |
| T3dh + pgc | SID104184451 | 7.54e5 | 6.09e5 | 1.14e6 | 9.95e5 | inactive |
| CG7824 | SID104196113 | 1.42e5 | 1.54e5 | 1.75e6 | 2.28e6 | inactive |
| CG4615 | SID104197283 | 5.02e5 | 7.08e5 | 3.52e5 | 3.68e5 | inactive |
| CG4615 | SID104198168 | 62238 | 72038 | 4.97e5 | 4.83e5 | inactive |
| CG4615 | SID104205266 | 4.59e5 | 7.17e5 | 8.91e5 | 7.07e5 | inactive |
| CG12360 (retired record) | SID104194297 | 85625 | 1.03e5 | 1.22e6 | 1.50e6 | inactive |
| Lcp9 | SID104184079 | 3.46e5 | 3.06e5 | 2.41e6 | 1.58e6 | inactive |
| fru | SID104196745 | 6.84e5 | 8.28e5 | 2.27e6 | 2.33e6 | inactive |
| fru | SID104203506 | 7.28e5 | 4.79e5 | 5.09e5 | 4.48e5 | inactive |
| CG9674 | SID104190880 | 54820 | 66679 | 3.42e5 | 3.26e5 | inactive |
| CG9674 | SID104190881 | 1.59e5 | 1.81e5 | 1.22e6 | 1.15e6 | inactive |
| CG3184 | SID104198081 | 57863 | 62881 | 7.89e5 | 3.77e5 | inactive |
| CG17032 | SID104190033 | 1.91e5 | 1.09e5 | 1.94e6 | 1.56e6 | inactive |
| CG7407 | SID104191616 | 34570 | 67820 | 4.12e5 | 4.22e5 | inactive |
| rux | SID104198621 | 1.31e5 | 1.08e5 | 7.55e5 | 5.26e5 | inactive |
| Coq5 | SID104199641 | 2.63e5 | 2.91e5 | 2.38e6 | 3.42e6 | inactive |
| Coq5 | SID104201142 | 7.86e5 | 9.46e5 | 9.39e5 | 1.61e6 | inactive |
| Coq5 | SID104208229 | 7.96e5 | 7.15e5 | 1.03e6 | 9.45e5 | inactive |
| CG15337 | SID104197812 | 2.29e5 | 3.43e5 | 1.55e6 | 1.82e6 | inactive |
| CG15337 | SID104202139 | 3.85e5 | 4.74e5 | 1.21e6 | 1.37e6 | inactive |
| CG16741 | SID104186414 | 1.27e5 | 1.03e5 | 2.10e6 | 1.55e6 | inactive |
| CG16741 | SID104203037 | 5.68e5 | 7.21e5 | 6.41e5 | 7.61e5 | inactive |
| Cht11 | SID104198062 | 1.94e5 | 2.76e5 | 2.44e6 | 2.63e6 | inactive |
| Cht11 | SID104204486 | 4.22e5 | 6.28e5 | 8.22e5 | 7.72e5 | inactive |
